# Measured values: PubChem BioAssay AID720504 (National Center for Advancing Translational Sciences (NCATS), 2013)
# Chains of the proteins cited; added tags and fusions are not shown.
# UniProt P53350, whole entry, looked up: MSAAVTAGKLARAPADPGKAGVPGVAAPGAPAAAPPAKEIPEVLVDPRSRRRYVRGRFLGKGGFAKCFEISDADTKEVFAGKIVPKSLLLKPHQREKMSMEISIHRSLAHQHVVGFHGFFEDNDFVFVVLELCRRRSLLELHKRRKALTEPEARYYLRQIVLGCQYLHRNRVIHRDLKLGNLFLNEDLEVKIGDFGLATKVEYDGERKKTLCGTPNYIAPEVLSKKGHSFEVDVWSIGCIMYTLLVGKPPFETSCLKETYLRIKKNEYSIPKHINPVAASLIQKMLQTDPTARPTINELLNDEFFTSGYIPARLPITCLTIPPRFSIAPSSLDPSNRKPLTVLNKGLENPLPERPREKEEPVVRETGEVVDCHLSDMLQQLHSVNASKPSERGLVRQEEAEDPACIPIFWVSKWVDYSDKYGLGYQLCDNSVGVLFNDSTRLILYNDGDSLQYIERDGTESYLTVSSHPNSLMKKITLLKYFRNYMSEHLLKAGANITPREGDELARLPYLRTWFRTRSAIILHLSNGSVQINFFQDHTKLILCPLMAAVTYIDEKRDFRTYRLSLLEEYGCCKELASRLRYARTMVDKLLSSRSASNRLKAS
# Screen size: about 360,000 compounds; about 10,000 (2.8%) were called active. Inconclusive means that the source gave no clear call. Such entries were picked first, then a sample of the others. The call rests on the fitted dose curve; in most records, active means well fitted inhibition curve with a large enough effect; inconclusive means small, poorly fitted or top-dose-only effect; inactive means flat fitted curve, though single readings scatter. Potencies beside an inconclusive call are fits to weak or partial responses and may not hold up.
# Molecular target: Serine/threonine-protein kinase PLK1 (Homo sapiens) (UniProt P53350)
# Assay: qHTS for Inhibitors of PLK1-PDB (polo-like kinase 1 - polo-box domain): Primary Screen; further: nearly all actives have a fitted effect of over 65% in size; on max response, negative = inhibition: series mostly up to about 57 µM
# Conditions: Plk1 PBD binding of FITC phosphopeptide, fluorescence polarization
# On the % scale 0 is the no-effect control and ±100 the full control effect; potency means the concentration at half of the fitted maximal effect.
SMILES,"max response, negative = inhibition",Potency
Cc1noc(C)c1COc1ccccc1C(=O)N1CCN(S(=O)(=O)c2cccc([N+](=O)[O-])c2)CC1,inactive: -1.21%,
O=C(NCC(=O)N(CCN1CCOCC1)C(C(=O)NC1CCCC1)c1cccs1)c1ccco1 (stereo not given),,"inconclusive: 23.8 µM [inhibitor, partial curve]"
O=C(N/N=C/c1ccoc1)c1cc(O)cc(O)c1,,"inconclusive: 29.9 µM [inhibitor, partial curve]"
Cc1ccc(S(=O)(=O)N2[C@@H](c3ccc(F)cc3)C(C(=O)O)=CC[C@H]2c2ccc(C(C)C)cc2)cc1,,"inconclusive: 33.6 µM [inhibitor, single point]"
Brc1ccc(NC(c2ccccc2)c2ccncc2)cc1 (stereo not given),,"inconclusive: 21.2 µM [inhibitor, single point]"
O=C(Nc1cc(S(=O)(=O)Nc2ccc(Cl)cc2)ccc1N1CCCCC1)c1ccc(F)cc1,,active: 11.9 µM
Nc1nc(N2CCN(c3ccccn3)CC2)nc2ccccc12,inactive: -12.8%,
CC(C)=C1SC(N2CCN(c3cccc(C)c3)CC2)=NC1=O,inactive: -13.5%,
COc1cc(C(=S)N2CCOCC2)cc(Br)c1OS(=O)(=O)c1ccccc1,inactive: -23.3%,
O=C1CC(c2ccccc2)Sc2ccccc2N1 (stereo not given),,"inconclusive: 26.7 µM [inhibitor, partial curve]"
Clc1ccc(OCCCCN2CCCCC2)cc1,inactive: -10.1%,
NC(=S)N/N=C\c1ccc(-c2cccc(Cl)c2Cl)o1,,"inconclusive: 29.9 µM [inhibitor, partial curve]"
CN(c1ccc(C(=O)N2CCN(Cc3ccc4c(c3)OCO4)CC2)cc1)S(C)(=O)=O,inactive: -8.87%,
C/C=C/C=C\C(=O)Nc1cccc(C2=NOC3(C2)C[C@H](C(N)=O)N(C(=O)/C=C/C)C3)c1 (stereo not given in full),inactive: -26.7%,
Cc1cc(C(=O)Nc2cccc3ccccc23)co1,,"inconclusive: 29.9 µM [inhibitor, single point]"
COc1cc(C(=S)N2CCOCC2)ccc1OC(=O)c1cc(OC)c(OC)c(OC)c1,,"inconclusive: 21.2 µM [inhibitor, partial curve]"
CC(C)(C)c1ccc(S(=O)(=O)NCC(=O)Nc2sc3c(c2C(N)=O)CCCC3)cc1,,active: 26.7 µM
COc1ccc(-c2cnc3nc(/N=C/N(C)C)nn3c2/N=C/N(C)C)cc1,,active: 23.8 µM
Oc1ccc2ccccc2c1CNc1ccccn1,,"inconclusive: 23.8 µM [inhibitor, single point]"
O=C(N/N=C/c1ccc(N2CCCCC2)o1)c1ccccc1,,"inconclusive: 21.2 µM [inhibitor, partial curve]"
O=C(O)CSCNC(=O)CC12CC3CC(CC(C3)C1)C2,,"inconclusive: 23.8 µM [inhibitor, single point]"
C/C(C/C(C)=C1/SC(=S)NC1=O)=C1\SC(=S)NC1=O,,active: 18.9 µM
CCc1nn(CC(=O)NC(C)CCc2ccccc2)c(=O)c2cc3occc3n12 (stereo not given),,active: 23.8 µM

# A section from further up, for reference:
SMILES,"max response, negative = inhibition",Potency
O=C(N/N=C/c1ccc(N2CCCCC2)o1)c1ccccc1,,"inconclusive: 21.2 µM [inhibitor, partial curve]"
O=C(O)CSCNC(=O)CC12CC3CC(CC(C3)C1)C2,,"inconclusive: 23.8 µM [inhibitor, single point]"

# Additional structures follow.

SMILES,"max response, negative = inhibition",Potency
S=C(NCCc1ccccc1)Nc1ccc(Nc2ccccc2)cc1,,"inconclusive: 26.7 µM [inhibitor, partial curve]"
CCc1ccc([C@@H]2CC=C(C(=O)O)[C@H](c3ccc(C)cc3)N2S(=O)(=O)c2ccc(C)cc2)cc1,,"inconclusive: 26.7 µM [inhibitor, single point]"
O=C(Nc1ccc2c(c1)OCCO2)c1ccncc1,,"inconclusive: 29.9 µM [inhibitor, single point]"
Cc1cccc(NC(=O)CN2C(=O)N/C(=C\c3ccc(-c4cccc(C(=O)O)c4)o3)C2=O)c1,,"inconclusive: 16.8 µM [inhibitor, partial curve]"
COc1ccc(C(=S)N2CCOCC2)cc1OS(=O)(=O)c1ccccc1[N+](=O)[O-],,"inconclusive: 2.67 µM [inhibitor, partial curve]"
CCNS(=O)(=O)c1ccc(NC(=O)c2ccccc2OCC)cc1,,"inconclusive: 37.7 µM [inhibitor, single point]"
CN(C)c1cc[n+](CC(=O)c2ccc(-c3ccccc3)cc2)cc1,,"inconclusive: 29.9 µM [inhibitor, partial curve]"
Cc1cc(N2C(=O)C(O)=C(C(=O)c3cc4ccccc4o3)C2c2cccc(Br)c2)no1 (stereo not given),,active: 26.7 µM
O=C(O)c1ccc(NC2=C/C(=N/S(=O)(=O)c3cccs3)c3ccccc3C2=O)cc1,,"inconclusive: 26.7 µM [inhibitor, partial curve]"
COc1ccc(-c2cc(C(=O)NC(Cc3cc4ccccc4[nH]3)C(=O)O)c(C)o2)cc1OC (stereo not given),,"inconclusive: 16.8 µM [inhibitor, partial curve]"
Cc1ccc(C2C(C(=O)c3sc(C)nc3C)=C(O)C(=O)N2CCN2CCOCC2)o1 (stereo not given),inactive: -2.96%,
COc1ccc2nc(N3CCCCC3)c(/C=C3\SC(=S)NC3=O)cc2c1,,"inconclusive: 23.8 µM [inhibitor, single point]"
O=C(CSc1nc(-c2ccco2)cc(C(F)(F)F)n1)NCCCN1CCOCC1,,"inconclusive: 29.9 µM [inhibitor, single point]"
O=C(Nc1nc(-c2ccccn2)cs1)c1ccccc1-n1cnnn1,,active: 3.77 µM
CCOC(=O)c1c(C)c(C(=O)NC2CCCCC2)c(C)n1CC,inactive: -0.436%,
O=C(COC(=O)c1cccc(S(=O)(=O)N2CCc3ccccc32)c1)Nc1ncc(Cl)cc1Cl,,"inconclusive: 3.77 µM [inhibitor, single point]"
COc1ccc(/C=N/Nc2nncc3ccccc23)cc1,inactive: -27.7%,
Cn1ccc(C(=O)NC(=S)N2CCSCC2)n1,inactive: -19.6%,
Cc1nn(C)c(C)c1CN(C)S(=O)(=O)c1ccc2ccccc2c1,inactive: -0.321%,
COC(Cc1ccccc1N1CCCC1=O)OC,inactive: -5.92%,
CSc1ccc(C(=O)NCC(=O)O)cc1[N+](=O)[O-],,active: 26.7 µM
CCN1C(=O)C(C(=O)c2ccccc2)SC1=S (stereo not given),,"inconclusive: 33.6 µM [inhibitor, single point]"
